The text below walks through data of US20250381324A1 (INSERM (Institut National de la Santé et de la Recherche …, priority 2021, published 2025).

A short description of this data set: general procedure: Fmoc solid-phase peptide synthesis; Protide Rink-amide resin (CEM, 100-200 Mesh; loading 0.2 mmol/g); DIC/Oxyma. The settings on record: conjugation step, TFA salt.

With “[^#CH2CONH2GTYKSTVIVNNKEKTTAEYQ-(Ttds)4-K(N3)-NH2]-[QHQMLFYhC^#DDVLFYNISSMK-CONH2]”, the conjugation yield entry is listed as “Y=21%”.
